# Assay results: PubChem BioAssay AID296 (DTP/NCI, 2004)
# The list shows only some results of the screen, not a fair sample: it gathers tests that were run many times, whatever their T/C, doses with no T/C, and many T/C values between a quarter and a half above the control. Other doses and runs of a compound stand elsewhere. T/C gives the treated animals as a percentage of the vehicle group. Schedules are NCI's codes, taken here to give the interval after Q, in days (D) or hours (H), and the number of doses after X. Some entries hold several experiments; their values stand side by side, smallest first. Some molecules as drawn cover several salts, stereoisomers or complexes of the source; a dose is that of the sample tested. Some T/C values are negative: the treated tumours shrank. Some T/C values are followed by the survivors on the day toxicity was checked, most often the fifth; where none is given, no animal had died by that day. Some entries give survivors of the animals treated and no T/C: the source files T/C as zero there, which appears to mark a toxic dose or a test without result, not a measured value. Counts of survivors are from the toxicity check (mostly the fifth day) where no day follows; animals may have died later.
# Test system: MX-1 breast xenograft, nude mice, tumor weight T/C
# Test: NCI In Vivo Anticancer Drug Screen. Data for tumor model Human Mammary Carcinoma MX-1 Xenograft (intrarenal inoculation) in NU/NU Swiss (nude) mice
# Settings: T/C endpoint: mean tumor weight change, higher T/C = larger tumour; for T/C: evaluated on day 11
# Summary of the method: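 Antitumour effect measured in vivo against vehicle controls, expressed as T/C.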
# [1] = dose: 120.0 mg/kg/injection, schedule: Q04DX003 (sc), vehicle: Klucel (hydroxypropylcellulose) (HPC)
# [2] = dose: 600.0 mg/kg/injection, schedule: Q04DX003 (ip), vehicle: saline with Tween-80
structure (smiles),measurement,setting,value
O=C1c2c(O)ccc(O)c2C(=O)c2c(NCCNCCO)ccc(NCCNCCO)c21,T/C,"dose: 1.0 mg/kg/injection, schedule: Q01DX010 (sc), vehicle: acid diluted with saline",128 % of control
same,survivor count,"dose: 4.0 mg/kg/injection, schedule: Q01DX010 (sc), vehicle: acid diluted with saline",0 of 3 on day 11
same,survivor count,"dose: 10.0 mg/kg/injection, schedule: Q04DX003 (sc), vehicle: water",2 of 6 on day 11
same,survivor count,"dose: 20.0 mg/kg/injection, schedule: Q04DX003 (sc), vehicle: other",0 of 6 on day 11
same,survivor count,"dose: 20.0 mg/kg/injection, schedule: Q04DX003 (sc), vehicle: water",0 of 6 on day 11
same,survivor count,"dose: 40.0 mg/kg/injection, schedule: Q04DX003 (sc), vehicle: water",0 of 6 on day 11
O=C(O)C1CSCN1 (centres undefined),T/C,"dose: 100.0 mg/kg/injection, schedule: Q01DX010 (sc), vehicle: water",142 % of control
same,survivor count,"dose: 200.0 mg/kg/injection, schedule: Q01DX010 (sc), vehicle: water",1 of 3 on day 11
same,survivor count,"dose: 400.0 mg/kg/injection, schedule: Q01DX010 (sc), vehicle: water",0 of 3 on day 11
CCCCCCCCSC1=C(Cl)C(=O)C(OC)=C(OC)C1=O,survivor count,"dose: 288.0 mg/kg/injection, schedule: Q04DX003 (sc), vehicle: saline with Tween-80",1 of 6 on day 11
COP12(OCCO1)SC(C(F)(F)F)=C(C(F)(F)F)S2,survivor count,"dose: 500.0 mg/kg/injection, schedule: Q04DX003 (sc), vehicle: saline with Tween-80",3 of 6 on day 11
same,survivor count,"dose: 1000.0 mg/kg/injection, schedule: Q04DX003 (sc), vehicle: saline with Tween-80",2 of 6 on day 11
Cc1[nH]c(=O)[nH]c(=O)c1N(CCF)CCCl,T/C,"dose: 30.0 mg/kg/injection, schedule: Q04DX003 (sc), vehicle: Klucel (hydroxypropylcellulose) (HPC)","1, 8, 9, 15, 44 % of control"
same,T/C,"dose: 60.0 mg/kg/injection, schedule: Q04DX003 (sc), vehicle: Klucel (hydroxypropylcellulose) (HPC)","-85, -81, -71 [4 of 6 alive on day 11], 4, 5 % of control"
same,T/C,[1],-96 [4 of 6 alive on day 11] and -64 % of control [4 of 5 alive on day 11]
same,survivor count,[1],0 of 6 on day 11 and 3 of 6 on day 11
same,survivor count,"dose: 160.0 mg/kg/injection, schedule: Q04DX003 (sc), vehicle: Klucel (hydroxypropylcellulose) (HPC)","0 of 6 on day 11, 1 of 6 on day 11, 2 of 6 on day 11"
same,survivor count,"dose: 240.0 mg/kg/injection, schedule: Q04DX003 (sc), vehicle: Klucel (hydroxypropylcellulose) (HPC)",0 of 6 on day 11
COc1ccc2c(c1[N+](=O)[O-])CC[C@@H]1[C@@H]2CC[C@]2(C)C(=O)CC[C@@H]12,T/C,[2],148 % of control
CCN(CC)CCCNc1nccc2c(C)c3[nH]c4ccncc4c3cc12,survivor count,"dose: 20.0 mg/kg/injection, schedule: Q01DX010 (sc), vehicle: other",0 of 3 on day 11
same,survivor count,"dose: 40.0 mg/kg/injection, schedule: Q01DX010 (sc), vehicle: other",0 of 3 on day 11
O=c1cc(CCl)[nH]nc1CCl,survivor count,"dose: 200.0 mg/kg/injection, schedule: Q01DX010 (sc), vehicle: saline with Tween-80",0 of 3 on day 11
same,survivor count,"dose: 400.0 mg/kg/injection, schedule: Q01DX010 (sc), vehicle: saline with Tween-80",0 of 3 on day 11
Cc1c2ccccc2c(C)c2c1cc(C(=O)O)c1ccccc12,T/C,"dose: 150.0 mg/kg/injection, schedule: Q04DX003 (ip), vehicle: sodium bicarbonate",136 % of control [4 of 6 alive on day 11]
same,survivor count,"dose: 300.0 mg/kg/injection, schedule: Q04DX003 (ip), vehicle: sodium bicarbonate",1 of 6 on day 11
same,survivor count,"dose: 600.0 mg/kg/injection, schedule: Q04DX003 (ip), vehicle: sodium bicarbonate",0 of 6 on day 11
same,survivor count,"dose: 1200.0 mg/kg/injection, schedule: Q04DX003 (ip), vehicle: sodium bicarbonate",0 of 6 on day 11
COc1cc2cc(c1Cl)N(C)C(=O)CC(OC(=O)CC(C)C)C1(C)OC1C(C)C1CC(O)(NC(=O)O1)C(OC)/C=C/C=C(C)C2 (centres undefined),survivor count,"dose: 25.0 micrograms/kg/injection, schedule: Q01DX010 (sc), vehicle: saline + alcohol",3 of 6 on day 11
same,survivor count,"dose: 100.0 micrograms/kg/injection, schedule: Q01DX010 (sc), vehicle: saline + alcohol",3 of 5 on day 11
same,survivor count,"dose: 200.0 micrograms/kg/injection, schedule: Q01DX010 (sc), vehicle: saline + alcohol",0 of 6 on day 11 and 1 of 3 on day 11
CCN(CC)c1ccc2cc(-c3nc4ccccc4n3C)c(=O)oc2c1,survivor count,"dose: 600.0 mg/kg/injection, schedule: Q04DX003 (sc), vehicle: Klucel (hydroxypropylcellulose) (HPC)",2 of 6 on day 11
CN(C)c1ccc2c(N(C)C)cc(N(C)C)nc2c1,survivor count,"dose: 150.0 mg/kg/injection, schedule: Q04DX003 (sc), vehicle: Klucel (hydroxypropylcellulose) (HPC)",0 of 6 on day 11
Cc1cc2c(C(C)C)c(O)c(O)c(C=O)c2c(O)c1-c1c(C)cc2c(C(C)C)c(O)c(O)c(C=O)c2c1O,T/C,"dose: 150.0 mg/kg/injection, schedule: Q04DX003 (sc), vehicle: saline with Tween-80",126 % of control [5 of 6 alive on day 11]
same,survivor count,"dose: 300.0 mg/kg/injection, schedule: Q04DX003 (sc), vehicle: saline with Tween-80",3 of 6 on day 11
same,survivor count,"dose: 600.0 mg/kg/injection, schedule: Q04DX003 (sc), vehicle: saline with Tween-80",3 of 6 on day 11
same,survivor count,"dose: 1200.0 mg/kg/injection, schedule: Q04DX003 (sc), vehicle: saline with Tween-80",0 of 6 on day 11
CC1(O)C=CC(=O)C=C1,survivor count,"dose: 100.0 mg/kg/injection, schedule: Q04DX003 (ip), vehicle: water",0 of 6 on day 11
same,survivor count,"dose: 200.0 mg/kg/injection, schedule: Q04DX003 (ip), vehicle: water",0 of 6 on day 11
COC(=O)Nc1nc2ccc(C3(c4ccc(F)cc4)OCCO3)cc2[nH]1,T/C,"dose: 25.0 mg/kg/injection, schedule: Q04DX003 (sc), vehicle: saline with Tween-80",129 % of control
same,T/C,"dose: 200.0 mg/kg/injection, schedule: Q04DX003 (sc), vehicle: saline with Tween-80",127 % of control
CCCC(=O)Nc1ncnc2c1ncn2C1OC2COP(=O)(O)OC2C1OC(=O)CCC (centres undefined),T/C,"dose: 100.0 mg/kg/injection, schedule: Q01DX010 (sc), vehicle: saline",137 % of control
same,T/C,"dose: 800.0 mg/kg/injection, schedule: Q01DX010 (sc), vehicle: saline",141 % of control [2 of 3 alive on day 11]
c1ccc2c(NCCCCCCNc3c4ccccc4nc4ccccc34)c3ccccc3nc2c1,survivor count,"dose: 40.0 mg/kg/injection, schedule: Q01DX010 (sc), vehicle: Klucel (hydroxypropylcellulose) (HPC)",1 of 3 on day 11
same,survivor count,"dose: 80.0 mg/kg/injection, schedule: Q01DX010 (sc), vehicle: Klucel (hydroxypropylcellulose) (HPC)",0 of 3 on day 11
CCC(NC(N)=O)C(CC)NC(N)=O (centres undefined),survivor count,"dose: 75.0 mg/kg/injection, schedule: Q04DX003 (ip), vehicle: saline with Tween-80",2 of 6 on day 11
same,survivor count,"dose: 150.0 mg/kg/injection, schedule: Q04DX003 (ip), vehicle: saline with Tween-80",2 of 6 on day 11
same,survivor count,"dose: 300.0 mg/kg/injection, schedule: Q04DX003 (ip), vehicle: saline with Tween-80",0 of 6 on day 11
same,survivor count,[2],0 of 5 on day 11
C=CCNc1ccc(C)cc1,survivor count,"dose: 200.0 mg/kg/injection, schedule: Q01DX010 (sc), vehicle: Klucel (hydroxypropylcellulose) (HPC)",1 of 3 on day 11
same,survivor count,"dose: 400.0 mg/kg/injection, schedule: Q01DX010 (sc), vehicle: Klucel (hydroxypropylcellulose) (HPC)",1 of 5 on day 11
same,survivor count,"dose: 800.0 mg/kg/injection, schedule: Q01DX010 (sc), vehicle: Klucel (hydroxypropylcellulose) (HPC)",0 of 6 on day 11
O=CC(=O)c1ccc(O)cc1,survivor count,"dose: 600.0 mg/kg/injection, schedule: Q04DX003 (sc), vehicle: saline",3 of 6 on day 11
same,survivor count,"dose: 1200.0 mg/kg/injection, schedule: Q04DX003 (sc), vehicle: saline",0 of 6 on day 11
CC(=O)OCC1OC(n2ncc(=O)[nH]c2=O)C(OC(C)=O)C1OC(C)=O (centres undefined),T/C,"dose: 1200.0 mg/kg/injection, schedule: Q04DX003 (sc), vehicle: suspension in saline",137 % of control
